Paper PMC8062120
No constants are given. Whether binding was seen depends on the method and setting. A result given as binding can be weak or reduced; the word gives no strength. Sequences can lack the tags named with a protein.

By UniProt entry, the sequences of proteins in these tests, tags left out. Where a name states a change or a piece, a line headed by the entry shows the natural chain unless it says otherwise.
UniProt P35609: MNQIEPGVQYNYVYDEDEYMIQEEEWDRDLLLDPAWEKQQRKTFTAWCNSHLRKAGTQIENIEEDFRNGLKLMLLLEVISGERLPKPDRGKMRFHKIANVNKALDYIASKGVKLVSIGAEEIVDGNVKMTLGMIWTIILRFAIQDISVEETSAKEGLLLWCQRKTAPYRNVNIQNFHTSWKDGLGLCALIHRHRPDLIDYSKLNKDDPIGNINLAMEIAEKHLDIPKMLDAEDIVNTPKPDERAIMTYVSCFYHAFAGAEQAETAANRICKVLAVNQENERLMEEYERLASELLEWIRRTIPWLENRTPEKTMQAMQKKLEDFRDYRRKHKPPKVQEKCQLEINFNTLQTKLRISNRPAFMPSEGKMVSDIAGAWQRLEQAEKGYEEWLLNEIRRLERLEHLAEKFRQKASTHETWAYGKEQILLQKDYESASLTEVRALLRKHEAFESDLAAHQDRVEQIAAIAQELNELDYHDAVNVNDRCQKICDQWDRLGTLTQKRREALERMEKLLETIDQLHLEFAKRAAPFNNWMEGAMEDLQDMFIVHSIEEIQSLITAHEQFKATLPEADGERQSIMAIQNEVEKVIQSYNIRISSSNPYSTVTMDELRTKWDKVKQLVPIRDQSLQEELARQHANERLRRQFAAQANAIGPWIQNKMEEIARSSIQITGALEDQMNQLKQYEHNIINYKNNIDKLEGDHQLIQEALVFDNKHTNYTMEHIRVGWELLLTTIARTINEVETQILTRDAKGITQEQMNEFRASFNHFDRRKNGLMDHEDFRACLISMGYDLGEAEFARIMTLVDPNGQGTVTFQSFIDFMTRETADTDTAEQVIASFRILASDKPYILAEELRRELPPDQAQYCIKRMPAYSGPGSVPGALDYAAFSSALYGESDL

Molecular target: T1, Full-length myotilin with N-terminal thioredoxin tag (Trx-MYOT) (human) (UniProt Q9UBF9)
T1 sequence: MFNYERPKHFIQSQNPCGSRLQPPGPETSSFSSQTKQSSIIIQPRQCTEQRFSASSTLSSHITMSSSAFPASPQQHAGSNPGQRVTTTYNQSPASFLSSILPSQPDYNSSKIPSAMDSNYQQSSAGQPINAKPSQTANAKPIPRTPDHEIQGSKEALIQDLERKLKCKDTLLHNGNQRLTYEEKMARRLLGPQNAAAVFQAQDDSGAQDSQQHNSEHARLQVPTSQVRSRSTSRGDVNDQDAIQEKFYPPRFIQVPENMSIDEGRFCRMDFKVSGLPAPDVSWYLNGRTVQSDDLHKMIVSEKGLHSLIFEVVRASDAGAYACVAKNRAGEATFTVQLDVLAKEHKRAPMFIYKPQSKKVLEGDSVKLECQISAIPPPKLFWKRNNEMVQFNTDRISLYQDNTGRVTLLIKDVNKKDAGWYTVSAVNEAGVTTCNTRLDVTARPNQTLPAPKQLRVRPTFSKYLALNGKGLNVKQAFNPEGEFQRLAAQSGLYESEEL
Assay: pull-down; Trx-MYOT (5 μM) mixed with α-actinin-2 constructs (2.5 to 7.5 μM) in buffer P (20 mM Tris-HCl, 100 mM NaCl, 10 mM imidazole, 5% glycerol, pH 7.5), captured on Co2+-loaded Chelating Sepharose beads, room temperature; SDS-PAGE; both purified

Constitutively open mutant of α-actinin-2 (ACTN2-NEECK) (from UniProt P35609)
binding: binds
